# Assay results reported in the supplement of paper PMC6411743.
# ± gives the standard deviation of the averaged measurements. The entries are a selection whose mix differs from that of the whole data set.
# Assays:
# Assay in all cases: NP40-soluble protein abundance relative to vehicle (solubility fold change) (ratio); higher = more soluble protein in presence of AMP-PNP
# SYMPK = biological target: T1, SYMPK (UniProt Q92797)
# T1 sequence (whole entry): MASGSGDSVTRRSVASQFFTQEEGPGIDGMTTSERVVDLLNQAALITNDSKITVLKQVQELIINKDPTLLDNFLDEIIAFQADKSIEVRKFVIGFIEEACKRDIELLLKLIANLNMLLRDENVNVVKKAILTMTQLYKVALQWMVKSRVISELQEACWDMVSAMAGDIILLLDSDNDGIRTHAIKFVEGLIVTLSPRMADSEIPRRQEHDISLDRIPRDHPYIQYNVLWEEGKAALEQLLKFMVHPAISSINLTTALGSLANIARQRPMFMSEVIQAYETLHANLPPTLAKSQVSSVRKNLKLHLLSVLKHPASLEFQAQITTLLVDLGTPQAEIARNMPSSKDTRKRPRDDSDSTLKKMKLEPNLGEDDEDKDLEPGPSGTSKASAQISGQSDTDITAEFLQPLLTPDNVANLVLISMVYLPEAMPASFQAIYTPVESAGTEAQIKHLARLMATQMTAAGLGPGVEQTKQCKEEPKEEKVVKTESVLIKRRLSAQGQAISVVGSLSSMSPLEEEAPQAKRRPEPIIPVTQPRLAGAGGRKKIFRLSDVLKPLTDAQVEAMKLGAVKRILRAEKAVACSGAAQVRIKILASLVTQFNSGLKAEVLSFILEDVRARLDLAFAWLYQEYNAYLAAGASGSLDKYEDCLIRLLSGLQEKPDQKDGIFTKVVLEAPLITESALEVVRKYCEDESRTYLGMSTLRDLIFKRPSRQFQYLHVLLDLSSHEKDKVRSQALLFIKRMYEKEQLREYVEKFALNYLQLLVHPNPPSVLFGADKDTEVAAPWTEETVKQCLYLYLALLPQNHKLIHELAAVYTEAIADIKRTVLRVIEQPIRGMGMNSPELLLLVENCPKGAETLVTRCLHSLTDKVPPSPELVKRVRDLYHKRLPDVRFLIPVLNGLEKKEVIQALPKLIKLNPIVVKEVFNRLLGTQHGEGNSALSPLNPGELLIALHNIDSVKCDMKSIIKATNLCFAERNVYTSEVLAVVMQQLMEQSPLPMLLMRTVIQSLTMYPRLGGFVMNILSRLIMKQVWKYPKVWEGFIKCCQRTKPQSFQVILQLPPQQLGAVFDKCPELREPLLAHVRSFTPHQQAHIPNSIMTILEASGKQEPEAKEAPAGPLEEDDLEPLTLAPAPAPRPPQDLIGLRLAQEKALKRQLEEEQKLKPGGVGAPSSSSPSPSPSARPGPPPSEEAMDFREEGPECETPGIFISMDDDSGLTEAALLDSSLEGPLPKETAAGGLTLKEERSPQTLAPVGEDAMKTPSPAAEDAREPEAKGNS
# Summary of the method: (§1)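 Crude Jurkat lysate, prepared by Dounce homogenisation, was exposed to eight concentrations from 0.1 to 10 mM for 10 min at room temperature and then 3 min at 37 °C. Solubilisation used 0.8% NP40 with benzonase for 60 min at 4 °C, followed by ultracentrifugation and TMT labelling of the supernatant for LC-MS/MS. After vsn normalisation of intensities, each value is the fold change against the detergent-processed vehicle within each replicate, across three independent experiments.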
# UBLCP1 = biological target: T2, UBLCP1 (UniProt Q8WVY7)
# T2 sequence (whole entry): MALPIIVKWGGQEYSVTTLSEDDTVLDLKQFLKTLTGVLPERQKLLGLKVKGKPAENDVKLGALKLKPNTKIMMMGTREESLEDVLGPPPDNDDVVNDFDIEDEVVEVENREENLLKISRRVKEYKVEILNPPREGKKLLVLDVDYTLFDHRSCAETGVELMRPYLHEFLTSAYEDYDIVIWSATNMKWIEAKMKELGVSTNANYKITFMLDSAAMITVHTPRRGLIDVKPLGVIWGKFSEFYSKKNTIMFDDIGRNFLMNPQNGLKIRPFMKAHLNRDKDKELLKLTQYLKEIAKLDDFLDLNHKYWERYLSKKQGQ
# Summary of the method: as §1
# [1] = biological target: T3, UniProt Q8NBZ7 and related entries
# T3 sequence (whole entry): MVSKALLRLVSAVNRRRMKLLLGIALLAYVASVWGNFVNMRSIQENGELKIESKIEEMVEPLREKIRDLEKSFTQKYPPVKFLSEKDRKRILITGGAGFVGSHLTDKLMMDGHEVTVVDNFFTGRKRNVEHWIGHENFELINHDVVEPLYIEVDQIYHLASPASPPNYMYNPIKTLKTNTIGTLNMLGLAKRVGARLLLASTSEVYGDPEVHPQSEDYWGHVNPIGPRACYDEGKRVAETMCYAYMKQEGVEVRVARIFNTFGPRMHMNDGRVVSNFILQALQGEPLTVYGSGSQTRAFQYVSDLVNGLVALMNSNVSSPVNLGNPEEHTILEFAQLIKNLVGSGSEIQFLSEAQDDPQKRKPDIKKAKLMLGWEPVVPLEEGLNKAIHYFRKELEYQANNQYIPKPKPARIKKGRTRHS
# Summary of the method: as §1
# UniProt Q8NCE2-2 = biological target: T4, UniProt Q8NCE2-2
# T4 sequence (whole entry): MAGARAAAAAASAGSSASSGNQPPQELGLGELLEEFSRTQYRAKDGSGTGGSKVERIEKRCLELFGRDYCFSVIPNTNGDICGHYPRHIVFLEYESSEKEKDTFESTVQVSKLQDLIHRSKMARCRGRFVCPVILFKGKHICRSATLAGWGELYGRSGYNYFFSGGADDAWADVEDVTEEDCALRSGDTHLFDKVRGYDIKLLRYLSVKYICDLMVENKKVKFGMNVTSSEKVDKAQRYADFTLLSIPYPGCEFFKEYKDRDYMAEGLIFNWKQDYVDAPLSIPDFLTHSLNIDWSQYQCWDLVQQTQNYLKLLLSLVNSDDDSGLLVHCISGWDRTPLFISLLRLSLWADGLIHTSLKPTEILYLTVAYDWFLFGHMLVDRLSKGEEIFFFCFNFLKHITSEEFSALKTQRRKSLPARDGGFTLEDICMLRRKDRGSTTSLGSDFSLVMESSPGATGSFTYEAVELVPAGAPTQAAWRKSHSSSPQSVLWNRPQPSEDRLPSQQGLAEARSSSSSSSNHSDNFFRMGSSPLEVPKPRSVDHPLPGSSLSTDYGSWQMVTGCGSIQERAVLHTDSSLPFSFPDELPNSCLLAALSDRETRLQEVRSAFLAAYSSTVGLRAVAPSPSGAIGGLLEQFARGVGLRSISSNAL
# Summary of the method: as §1
structure (smiles),measurement,setting,value
Nc1ncnc2c1ncn2[C@@H]1O[C@H](COP(=O)(O)OP(=O)(O)NP(=O)(O)O)[C@@H](O)[C@H]1O [adenylyl imidodiphosphate],NP40-soluble protein abundance,SYMPK; concentration: 6mM,1 ± 0.019
same,NP40-soluble protein abundance,SYMPK; concentration: 8mM,1.01 ± 0.025
same,NP40-soluble protein abundance,SYMPK; concentration: 10mM,1.02 ± 0.047
same,NP40-soluble protein abundance,UBLCP1; concentration: 1mM,0.952 ± 0.065
same,NP40-soluble protein abundance,UBLCP1; concentration: 2mM,0.946 ± 0.053
same,NP40-soluble protein abundance,UBLCP1; concentration: 4mM,0.945 ± 0.11
same,NP40-soluble protein abundance,UBLCP1; concentration: 6mM,1.11 ± 0.13
same,NP40-soluble protein abundance,UBLCP1; concentration: 8mM,1.16 ± 0.069
same,NP40-soluble protein abundance,UBLCP1; concentration: 10mM,1.16 ± 0.12
same,NP40-soluble protein abundance,[1]; concentration: 1mM,0.996 ± 0.019
same,NP40-soluble protein abundance,[1]; concentration: 2mM,1.01 ± 0.021
same,NP40-soluble protein abundance,[1]; concentration: 4mM,1.037 ± 0.0067
same,NP40-soluble protein abundance,[1]; concentration: 6mM,1.04 ± 0.058
same,NP40-soluble protein abundance,[1]; concentration: 8mM,0.997 ± 0.035
same,NP40-soluble protein abundance,[1]; concentration: 10mM,1.01 ± 0.015
same,NP40-soluble protein abundance,UniProt Q8NCE2-2; concentration: 1mM,1.03 ± 0.035
same,NP40-soluble protein abundance,UniProt Q8NCE2-2; concentration: 2mM,0.993 ± 0.079
same,NP40-soluble protein abundance,UniProt Q8NCE2-2; concentration: 4mM,1.02 ± 0.057

# Two entries from above, with bars between the fields.
structure (smiles) | measurement | setting | value
Nc1ncnc2c1ncn2[C@@H]1O[C@H](COP(=O)(O)OP(=O)(O)NP(=O)(O)O)[C@@H](O)[C@H]1O [adenylyl imidodiphosphate] | NP40-soluble protein abundance | UBLCP1; concentration: 8mM | 1.16 ± 0.069
same | NP40-soluble protein abundance | UBLCP1; concentration: 10mM | 1.16 ± 0.12
